Data from paper PMC12040169 (PLOS Biology, 2025).
This is one part of the list.

Each molecule was assayed on T1, CTL2-GFP (C. trachomatis L2/434/Bu, GFP-expressing). Conditions: bulk GFP, single well; 28.5 h, 10 µM; inhibitor.
T1 construct: L2/434/Bu, GFP-expressing
Design: species or system HeLa; Intracellular C. trachomatis growth in HeLa cells, bulk GFP fluorescence relative to DMSO

| SMILES | % of control remaining [%] |
| --- | --- |
| CS(=O)(=O)N1CC2(CCN(CCOCc3ccccc3)CC2)c2ccccc21 [CBK115458T] | 141.254 |
| CC(C)N(Cc1nc(-c2ccccc2)no1)C(=O)CCc1ccccc1 [CBK269867] | 75.1658 |
| O=C(CCS(=O)(=O)c1ccccc1)Nc1ccc(N2CCNCC2)c2ccccc12 [CBK028408T] | 97.7307 |
| Cc1cc(C(=O)N2CC[C@H]3NC(=O)c4ccccc4OCCCCC[C@H]3C2)no1 [CBK292005] | 145.996 |
| Cc1ccc(S(=O)(=O)Nc2ccccn2)c(C)c1C [CBK264995] | 126.04 |
| Cc1nc2c(OCCN3C(=O)c4ccccc4C3=O)cccn2c1N(C)C(=O)C1CCCCC1 [CBK147157] | 103.81 |
| N=c1c2c(-c3ccccc3)c(-c3ccccc3)oc2ncn1CCCN1CCOCC1 [CBK268484] | 122.515 |
| O=C1CCCN1C(=O)CN1CCOCC1 [CBK261467] | 84.6636 |
| CCOc1ccc(C(=O)Nc2ccc(S(=O)(=O)N3CCN(C)CC3)cc2)cc1 [CBK269959] | 137.442 |
| OC(CN1CCC(O)(Cn2cnc3ccccc32)CC1)c1ccc(-c2ccccc2)cc1 (centres unmarked) [CBK286437] | 109.25 |
| O=C(CNC(=O)OCc1ccncc1)NCC(CCCN1CCC(c2ccccc2)CC1)(c1ccccc1)c1ccccc1 [CBK024060A] | 143.102 |
| O=C(Nc1ccccc1C(F)(F)F)c1ccc(-n2cnnn2)cc1 [CBK300521] | 163.88 |
| C/C(N)=C(/C#N)C(NC(=O)C1CCCCC1)(C(F)(F)F)C(F)(F)F [CBK267902] | 108.932 |
| Nc1ccc2ccc(-c3ccsc3)nc2n1 [CBK067624] | 125.84 |
| O=C1N[C@H]2CCCN(C(=O)c3cc(=O)[nH]c(=O)[nH]3)[C@H]2C/C=C/CCOc2ccccc21 [CBK292065] | 96.2121 |
| O=C(c1coc(COc2cccc(F)c2)n1)N1CC(n2cccn2)C1 [CBK306842] | 142.927 |
| Cc1csc(C(C)NC(=O)c2cccnc2NCc2ccc3c(c2)OCO3)n1 (centres unmarked) [CBK153425] | 76.5848 |
| Cc1nn(CCNC(=O)C(c2ccc(F)cc2)N(C)C)c(C)c1C (centres unmarked) [CBK282009] | 106.674 |
| Nc1ncc(-c2ccc(C(=O)N3CCOCC3)cc2)nc1C(=O)NCc1ccc(O)cc1 [CBK149161] | 121.796 |
| CN(Cc1nc(-c2cccnc2)no1)S(=O)(=O)c1ccc2ccccc2c1 [CBK267385] | 99.6622 |
| Nc1ncc(-c2cccc(-c3ccccc3)c2)nc1NCc1cccnc1 [CBK063491] | 212.274 |
| CCOc1cc(C2CC(=O)NC(SCC(=O)Nc3cccc(C(F)(F)F)c3)=C2C#N)ccc1O (centres unmarked) [CBK265778] | 83.2143 |
| C[C@H]1CN2CCCC2CN1Cc1cccc(F)c1F (some centres unmarked) [CBK285454] | 80.8085 |
| COc1ccc(Nc2nc(N)nc(CSC(=S)N3CCN(C)CC3)n2)cc1 [CBK265232] | 126.556 |
| COCC1CN(C(=O)Nc2nnc(Cc3ccc(C)cc3)s2)CCO1 (centres unmarked) [CBK306278] | 158.679 |
| O=C(c1ccccc1)N1CCc2[nH]nc(-c3ccccc3)c2C1 [CBK287904] | 118.457 |

Filtered by structure, the entries above containing a cyano group

| SMILES | % of control remaining [%] |
| --- | --- |
| C/C(N)=C(/C#N)C(NC(=O)C1CCCCC1)(C(F)(F)F)C(F)(F)F [CBK267902] | 108.932 |
| CCOc1cc(C2CC(=O)NC(SCC(=O)Nc3cccc(C(F)(F)F)c3)=C2C#N)ccc1O (centres unmarked) [CBK265778] | 83.2143 |

An excerpt of these results, with bars between the fields.
SMILES | % of control remaining [%]
CS(=O)(=O)N1CC2(CCN(CCOCc3ccccc3)CC2)c2ccccc21 [CBK115458T] | 141.254
O=C1CCCN1C(=O)CN1CCOCC1 [CBK261467] | 84.6636
Nc1ncc(-c2ccc(C(=O)N3CCOCC3)cc2)nc1C(=O)NCc1ccc(O)cc1 [CBK149161] | 121.796
COc1ccc(Nc2nc(N)nc(CSC(=S)N3CCN(C)CC3)n2)cc1 [CBK265232] | 126.556

Next part:

| SMILES | % of control remaining [%] |
| --- | --- |
| Cc1nc(COc2ccc(Cl)cc2)sc1C(=O)N1CCCCC1C(=O)O (centres unmarked) [CBK304233] | 103.482 |
| COc1ccccc1CC(=O)Nc1ccc(-c2nnc(-c3ccc(C)cc3)o2)cc1 [CBK268329] | 100.224 |
| COc1ccccc1NC(=O)Cn1c(=O)oc2cc(Cl)ccc21 [CBK269344] | 111.923 |
| CC(Cc1c[nH]c2ccccc12)NC(=N)NC(=N)N (centres unmarked) [CBK268251C] | 73.9099 |
| CN1CCOC(CNCc2ccc(OCC(N)=O)cc2)C1 (centres unmarked) [CBK304830] | 82.531 |
| CC(C)(C)c1ccc(O)c(NC(=S)NC(=O)c2cccc(OCc3ccccc3)c2)c1 [CBK269018] | 82.775 |
| Cc1ccc(CNC(=O)Cc2ccc(-c3ccc(CN4CCC(C)CC4)cc3)nc2)cc1F [CBK158402] | 104.892 |
| O=C(O)CNC(=O)CNC(=O)C12CC3CC(CC(C3)C1)C2 [CBK287083] | 129.213 |
| O=C1NCC2(CCCN(Cc3ccc(F)cc3)C2)Oc2ccccc21 (centres unmarked) [CBK284857] | 99.258 |
| CCOc1ccc2nc(SCCN3CCOCC3)sc2c1 [CBK005888] | 125.094 |
| S=C(Nc1ccccc1)N(Cc1ccccc1)Cc1ccncc1 [CBK267991] | 90.7177 |
| COc1ccc(CCNC(=O)N2CCN(c3ccccc3)CC2)cc1 [CBK155199] | 128.191 |
| Cc1nc2ccccn2c1CN1CCC(Oc2ccc(F)cc2)CC1 [CBK281803] | 101.519 |
| CC1=NN(c2nc(-c3ccc(Br)cc3)cs2)C(=O)C1/N=N/c1ccccc1C(=O)O (centres unmarked) [CBK262440] | 133.575 |
| CCN(CC)C(=O)c1sccc1NS(=O)(=O)Cc1ccccc1[N+](=O)[O-] [CBK050396] | 111.91 |
| CCOc1ccc(N2C(=O)CC(Nc3cc(C(=O)O)ccc3C)C2=O)cc1 (centres unmarked) [CBK296651] | 123.903 |
| Nc1ncc2ncn([C@@H]3O[C@H](CO)[C@H](O)C3O)c2n1 (some centres unmarked) [CBK201318] | 127.586 |
| O=C(O)c1cc(-n2c(S)nnc2-c2ccncc2)ccc1Cl [CBK268989] | 136.611 |
| CC(C)(C)c1ccnc(N[C@H]2CO[C@H]3[C@@H]2OC[C@@H]3NCc2ccccn2)n1 [CBK289524] | 115.345 |
| NC(=O)CCCN1CC[C@H]2c3c(cccc3C(N)=O)CC[C@H]21 [CBK007883] | 174.963 |
| COc1ccc(C(=O)NCCCSc2nc(C(C)(C)C)cc(C(F)(F)F)n2)cc1 [CBK268690] | 136.43 |
| Cc1ccc(NC(=O)CC(=O)NCCN2CCOCC2)cc1 [CBK262179] | 112.859 |
| Cc1c(NC(=O)CN2CCCC(C)C2)ccc2nsnc12 (centres unmarked) [CBK269248] | 117.225 |
| c1ccc(N2CCN(c3nc4cc5c(cc4s3)OCCO5)CC2)cc1 [CBK287499] | 146.103 |
| c1ccc(CCN2CCCN(c3ccnc(OCCN4CCOCC4)n3)CC2)nc1 [CBK083813] | 104.002 |
| CCSc1nc2ccccc2n1CC(=O)O [CBK262059] | 100 |

| SMILES | % of control remaining [%] |
| --- | --- |
| CCNC(=O)c1ccccc1NC(=O)C(C)Oc1ccccc1 (centres unmarked) [CBK269933] | 122.829 |
| CCN1CC(C(=O)N2CC(O)CC2c2cc(F)ccc2F)CC1=O (centres unmarked) [CBK304031] | 139.35 |
| Cn1cccc1C(=O)N1CCC(OCc2cnc(-c3ccc(S(C)(=O)=O)cc3)cn2)CC1 [CBK172007] | 106.387 |
| CN(C)CCN(CCc1ccccc1)Cc1ccncc1 [CBK283145] | 119.7 |
| Cc1cc2ccccc2n2c(=O)n(CCNC(=O)C(C)C)nc12 [CBK282876] | 113.571 |
| Cc1ccc(N2CCN(CC(O)COc3ccc(C(=O)c4ccc(Cl)cc4)cc3)CC2)c(C)c1 (centres unmarked) [CBK266117] | 161.814 |
| Cc1cnc2c(c1)cc(C1CCOCC1)n2CC(=O)N(C)C [CBK284754] | 116.486 |
| O=S(=O)(Nc1ccc(N2CCNCC2)c2ccccc12)c1ccc(Cl)s1 [CBK003146C] | 46.7574 |
| Cc1cc(Cl)ccc1NC(=O)COCC(=O)O [CBK057723] | 137.82 |
| CC(N)C1CCCCN1S(=O)(=O)c1ccc(OCc2ncnn2C)cc1 (centres unmarked) [CBK304272C] | 139.447 |
| CCCc1ccc(S(=O)(=O)Nc2cccc(C(=O)N3CCN(C)CC3)c2)cc1 [CBK039034] | 105.44 |
| CSc1ccc(CNC(=O)c2sc3nc(C)nc(N4CCCC4)c3c2C)cc1 [CBK294432] | 155.771 |
| Cc1ccc(Cc2c(C)[nH]c3[nH]n(-c4ccccc4)c(=O)c3c2=O)cc1 [CBK270273] | 148.328 |
| Cc1cc(C)nc(N/C(=N/C(=O)CCN2C(=O)c3ccccc3C2=O)Nc2cccc(Cl)c2)n1 [CBK266507] | 190.529 |
| O=C(Cn1c(-c2cccs2)cc2cccnc21)NCc1ccncc1 [CBK282456] | 143.481 |
| Cc1ccc(C(=O)O/C(=C/c2nc3ccccc3n2Cc2cccc3ccccc23)c2ccc(C)cc2)cc1 [CBK262485] | 107.148 |
| Cc1cc(=O)oc2ccc(OCC(=O)Nc3ccc(S(=O)(=O)O)cc3)cc12 [CBK263185N] | 116.876 |
| O=C(Cc1ccccc1F)NCCn1nc(-c2ccco2)ccc1=O [CBK283705] | 134.742 |
| COC(=O)c1c(NC(=S)NC(=O)c2c(Br)c(C)nn2C)sc2c1CCCCCC2 [CBK267486] | 159.514 |
| CCn1nc(C)c(C(C)NC(=O)C(C)n2cc(Cl)cn2)c1C (centres unmarked) [CBK281550] | 121.117 |
| CN(C)c1ccc(C(=O)N2C3CCC2CC(O)(c2ccco2)C3)cc1 (centres unmarked) [CBK284117] | 129.055 |
| O=C(Nc1ccccn1)c1c(O)n(Cc2ccccc2)c2ccccc2c1=O [CBK291213] | 102.008 |
| Cc1cc(C(=O)CSc2nnc(C(C)C)n2Cc2ccco2)c(C)n1C [CBK295178] | 161.528 |
| COC(=O)c1ccc(-c2cnc(OCC3CCN(C(=O)OC(C)(C)C)CC3)nc2)nc1 [CBK170130] | 121.695 |
| C=CCNC(=O)C1CCN(c2nc3ccccc3n2C)CC1 [CBK283955] | 109.885 |
